PubChem BioAssay AID652259, Drosophila RNAi Screening Center | 2013
Purpose: 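Genome-wide hunt for genes that control Wingless pathway activity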 (primary screen). System: Drosophila clone 8 imaginal disc epithelial cells. Reagent: long dsRNA against Drosophila genes. Conditions: pathway stimulated by co-transfected Wingless expression plasmid. Measurement: 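Dual luciferase reads per well after Wingless plasmid stimulation: reporter firefly light and Renilla control light; activity is firefly divided by Renilla, a ratio not deposited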. Reading the numbers: firefly reporter light: higher = more Wg reporter light, before normalisation; Renilla control light: higher = more transfected or surviving cells. Hit rule: 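a knock-down is a candidate when at least two out of four statistical tests show it departing from its plate mean; one test alone signals a weak candidate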. Meaning of the calls: active = candidate regulator (raises or lowers reporter); inactive = not a candidate.
In all, the deposit lists about 22,000 reagents; below is an unselected part of those that have a named target and a result. In the full data, 233 (1.1%) were called active. 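Light values are raw, unnormalised plate reads; the ratio scores behind the reporter calls were not deposited.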 A number with no mark means an inactive call. The numbers tell different reagents against one gene apart. Names joined by + are all predicted targets of the reagent. No sequences are given here. Not stated in the record: the amount of reagent, the time to read-out, the dose of the treatment.

no.	gene	reagent	reporter change call, replicate 1	firefly reporter light, replicate 1	firefly reporter light, replicate 2	Renilla control light, replicate 1	Renilla control light, replicate 2
1	CG3902 (GeneID 40059)	1		17125		3555	
2	ND4 (retired record) (GeneID 192476)	1		25099		1802	
3	sNPF-R (GeneID 40195)	1		14000		3868	
4	Vha14-1 (GeneID 36731)	1		4947		2132	
5	Arf1 (GeneID 40506)	1		4995		2192	
6	CG17272 (GeneID 42465)	1		16513		4074	
7	Rb97D (GeneID 43231)	1	Wg reporter activity raised	7210		1526	
8	Ir94d (GeneID 7354412)	1		4.83e5	4.67e5	2.33e5	1.61e5
9	CG5849 (GeneID 42556)	1		33916		5280	
10	CG16903 (GeneID 31178)	1		21606		10437	
11	Etf-QO (GeneID 36031)	1		2763	5159	518	1984
12	Syn1 + CG7370	1		6.19e5	6.11e5	2.96e5	2.58e5
13	PCNA2 (GeneID 35257)	1		2989	6034	804	2668
14	CG5554 (GeneID 37775)	1		3253	6745	632	1897
15	CG2278 (GeneID 31751)	1		14521		7205	
16	zpg (GeneID 251414)	1		2096	7252	992	3420
17	pps (GeneID 41524)	1		18576		1857	
18	Grl40a (GeneID 4379897)	1		14352		8966	
19	CG14323 (GeneID 42121)	1		25259		6144	
20	Tcs4 (GeneID 32982)	1		3701	10592	1387	2772
21	CG4069 (GeneID 39437)	1		4901		1672	
22	CG4681 (GeneID 37928)	1		2577	6896	737	2112
23	Fum1 (GeneID 31605)	1		2829	8951	914	3483
24	CG9130 + CG9133	1		8584		3715	
25	CG9130 + CG9133	2		18489		6653	
26	CG9130 + CG9133	3		4.92e5	5.20e5	1.69e5	1.75e5
27	ng1 (GeneID 31300)	1		16449		12781	
28	CG31221 (GeneID 42325)	1		14323		3699	
29	CG31221 (GeneID 42325)	2		17323		3643	
30	Ir64a (GeneID 38616)	1		1563	8839	1025	1899
31	Ir64a (GeneID 38616)	2		1272	6325	1188	3098
32	CG43098 (GeneID 12798585)	1		3165		1362	
33	CG18367 (GeneID 37255)	1		9856	9.12e5	3524	4.16e5
34	CG15139 (retired record) (GeneID 12798250)	1		3753	16211	1139	3216
35	S-Lap2 (GeneID 326209)	1		1737	8603	1211	3766
36	Mks1 (GeneID 32200)	1		16724		10188	
37	Coq8 (GeneID 32239)	1		13216		7249	
38	CG12099 (GeneID 38181)	1		6781		2736	
39	CG4854 (GeneID 42391)	1		15268		4240	
40	Liprin-gamma (GeneID 37552)	1		3980		1131	
41	Gnpat (GeneID 53586)	1		22009		17349	
42	Paf-AHalpha (GeneID 32529)	1		17914		7940	
43	CG11300 (GeneID 37760)	1		2565	8019	636	2790
44	CG6845 (GeneID 38019)	1		13580		4736	
45	ScpX (GeneID 44183)	1		11805		2312	
46	CG12012 (GeneID 38422)	1		5264		2280	
47	CG1791 (GeneID 31927)	1		2154	6107	541	1818
48	CG7728 (GeneID 39904)	1		3819		1660	
49	Lnk (GeneID 43130)	1		2434	4226	583	1655
50	Gsc (GeneID 33240)	1		2422	8277	892	2215
51	Fntb (GeneID 41989)	1		2588	5844	973	1862
52	Pde1c (GeneID 34594)	1		2716	6562	1192	3637
53	Pde1c (GeneID 34594)	2		4928	7109	1155	2802
54	Pde1c (GeneID 34594)	3		2880	7365	1075	2364
55	Pde1c (GeneID 34594)	4		2792	7307	1429	3997
56	Pde1c (GeneID 34594)	5		3473	5704	1403	3185
57	Pde1c (GeneID 34594)	6		1606	7161	960	3459

Entries above whose gene name starts with F or f (2):
gene	reagent	reporter change call, replicate 1	firefly reporter light, replicate 1	firefly reporter light, replicate 2	Renilla control light, replicate 1	Renilla control light, replicate 2
Fum1 (GeneID 31605)	1		2829	8951	914	3483
Fntb (GeneID 41989)	1		2588	5844	973	1862

Additional records follow:
no.	gene	reagent	reporter change call, replicate 1	firefly reporter light, replicate 1	firefly reporter light, replicate 2	Renilla control light, replicate 1	Renilla control light, replicate 2
58	Sgs8 (GeneID 39285)	1		5820		3824	
59	Actn (GeneID 31166)	1		2194	7034	784	1805
60	FER (GeneID 41118)	1		4873		2395	
61	FER (GeneID 41118)	2		10576		3289	
62	CG31635 (GeneID 33928)	1		2329	3186	672	827
63	CG31635 (GeneID 33928)	2		2058	5241	736	1952
64	Hacl (GeneID 37285)	1		16929		5290	
65	Spps (GeneID 42882)	1		1992	4443	865	928
66	Cyt-c-p (GeneID 34996)	1		2203	8116	1356	3168
67	Rh6 (GeneID 41889)	1		11308		3704	
68	CG12898 (GeneID 36096)	1		3712	5840	656	3508
69	Etfb (GeneID 43515)	1		4055	8583	1682	2868
70	CG17637 (GeneID 40275)	1		9106		3052	
71	ebi (GeneID 33212)	1	Wg reporter activity lowered (active)	4595		3814	
72	CG4622 (GeneID 37919)	1		4891		1159	
73	PTPMT1 (GeneID 42807)	1		12666		14044	
74	Gyc32E (GeneID 34553)	1		16108		7741	
75	CG16798 (GeneID 35308)	1		2022	5585	890	2626
76	CR43359 (GeneID 12798534)	1		32912		8886	
77	CG5986 (GeneID 192506)	1		3913	6546	1274	2061
78	Pur-alpha (GeneID 43797)	1		3191	9211	1329	3530
79	CG5347 (GeneID 32403)	1		28154		11716	
80	CG15236 (GeneID 35595)	1		4267	10521	265	4758
81	CG15236 (GeneID 35595)	2		7.47e5	7.46e5	1.97e5	1.29e5
82	SF2 (GeneID 53443)	1	Wg reporter activity lowered (active)	5367		3684	
83	CG5500 (GeneID 43233)	1		9073		3543	
84	Aldh7A1 (GeneID 40097)	1		7212		2163	
85	CG33232 (retired record) (GeneID 2769004)	1		12001		2884	
86	CG33232 (retired record) (GeneID 2769004)	2		6410		2450	
87	CG3500 (GeneID 37697)	1		2600	7109	842	1987
88	Arpc1 (GeneID 34793)	1		9653		3417	
89	Muc96D (GeneID 318737)	1		4916		2436	
90	Muc96D (GeneID 318737)	2		8.08e5	7.76e5	4.03e5	3.29e5
91	Plekhm1 (GeneID 37520)	1		2164	6864	593	2252
92	lncRNA:CR32553 (GeneID 318087)	1		4184		1196	
93	CG32984 (GeneID 34218)	1		5.32e5	5.29e5	3.15e5	1.94e5
